# Results as given in PubChem BioAssay AID248 (DTP/NCI, 2004).
# The list is a part of this screen's results and no random one: it is rich in T/C values a quarter to a half above the control, in often repeated tests (any T/C) and in doses without a T/C. Other doses and runs of a compound stand elsewhere. T/C is the treated group as % of the vehicle group. Some doses have a count of surviving animals in place of a T/C: the source files T/C as zero there, which appears to mark a toxic dose or a test without result, not a measured value. Some survivor counts are full or nearly so, which does not show that the dose was tolerated: survival well below the control is almost never listed, so the zero probably covers shortened survival too. Counts of survivors are from the toxicity check (mostly the fifth day) where no day follows; animals may have died later. Schedule codes are those of the source, read here as Q, the interval in days (D) or hours (H), X, the number of doses. Some schedule codes hold Z or #, which are not explained here. Some entries were tested several times; the results are listed from low to high. Where survival is the endpoint, this PubChem deposit counts one and a half times the control or more as active, and values a quarter to a half above the control carry no call in these data; other NCI protocols may use other cut-offs. Some T/C values are followed by the survivors on the day toxicity was checked, most often the fifth; where none is given, no animal had died by that day.
# System: L1210 leukemia ip in BDF1 mice, survival T/C
# Assay: NCI In Vivo Anticancer Drug Screen. Data for tumor model L1210 Leukemia (intraperitoneal) in B6D2F1 (BDF1) mice
# Conditions: T/C endpoint: mean survival time, higher T/C = longer survival
# [1] = dose: 30.0 mg/kg/injection, schedule: Q01DX001 (ip), vehicle: methylcellulose (MC)
# [2] = dose: 60.0 mg/kg/injection, schedule: Q01DX001 (ip), vehicle: methylcellulose (MC)
# [3] = dose: 90.0 mg/kg/injection, schedule: Q01DX001 (ip), vehicle: methylcellulose (MC)
# [4] = dose: 50.0 mg/kg/injection, schedule: Q04DX003 (ip), vehicle: saline
# [5] = dose: 100.0 mg/kg/injection, schedule: Q04DX003 (ip), vehicle: saline
# [6] = dose: 400.0 mg/kg/injection, schedule: Q04DX002 (ip), vehicle: saline
# [7] = dose: 200.0 mg/kg/injection, schedule: Q04DX002 (ip), vehicle: Klucel (hydroxypropylcellulose) (HPC)
# [8] = dose: 400.0 mg/kg/injection, schedule: Q01DX009 (ip), vehicle: Klucel (hydroxypropylcellulose) (HPC)
# [9] = dose: 200.0 mg/kg/injection, schedule: Q01DX001 (ip), vehicle: saline
# [10] = dose: 400.0 mg/kg/injection, schedule: Q01DX001 (ip), vehicle: saline
# [11] = dose: 100.0 mg/kg/injection, schedule: Q04DX002 (ip), vehicle: Klucel (hydroxypropylcellulose) (HPC)
# [12] = dose: 400.0 mg/kg/injection, schedule: Q04DX002 (ip), vehicle: Klucel (hydroxypropylcellulose) (HPC)
# [13] = dose: 100.0 mg/kg/injection, schedule: Q01DX001 (ip), vehicle: saline
smiles,measurement,setting,value
CCCCN=C(N)c1ccc(NC(=O)c2ccc(C(=O)Nc3ccc(C(N)=NCCCC)cc3)cc2)cc1,T/C,"dose: 3.0 mg/kg/injection, schedule: Q01DX Z (ip), vehicle: methylcellulose (MC)",145 % of control [5 of 6 alive]
same,survivor count,"dose: 24.0 mg/kg/injection, schedule: Q01DX Z (ip), vehicle: methylcellulose (MC)",0 of 6
same,T/C,[1],"109, 116, 120, 130, 142 % of control"
same,survivor count,[1],6 of 10
same,T/C,[2],"153 [9 of 10 alive], 160 [7 of 10 alive], 166 [5 of 6 alive], 171 % of control"
same,survivor count,[2],3 of 10 and 4 of 10
same,T/C,[3],169 % of control [7 of 10 alive]
same,survivor count,[3],"3 of 10, 4 of 10, 6 of 10"
FC(F)(F)c1ccc2c(c1)N(CCCN1CCN(CCOc3ccccc3)CC1)c1ccccc1S2,T/C,"dose: 12.5 mg/kg/injection, schedule: Q04DX003 (ip), vehicle: saline",126 % of control
same,survivor count,"dose: 25.0 mg/kg/injection, schedule: Q04DX003 (ip), vehicle: saline",6 of 6
same,survivor count,[4],3 of 6
same,survivor count,[5],0 of 6
CC(C)CC(C)OP(=S)(S)OC(C)CC(C)C (stereo not drawn),survivor count,"dose: 100.0 mg/kg/injection, schedule: Q04DX002 (ip), vehicle: saline",2 of 3
same,survivor count,"dose: 200.0 mg/kg/injection, schedule: Q04DX002 (ip), vehicle: saline",0 of 3
same,survivor count,[6],0 of 3
CCC1(C)CC(=O)NC(=O)C1,survivor count,"dose: 20.0 mg/kg/injection, schedule: Q04DX003 (ip), vehicle: saline with Tween-80",5 of 6
same,survivor count,"dose: 30.0 mg/kg/injection, schedule: Q04DX003 (ip), vehicle: saline",0 of 4
same,survivor count,"dose: 60.0 mg/kg/injection, schedule: Q04DX003 (ip), vehicle: saline",0 of 4
Clc1ncnc2ccccc12,survivor count,"dose: 400.0 mg/kg/injection, schedule: Q01DX001 (ip), vehicle: Klucel (hydroxypropylcellulose) (HPC)",3 of 6
CCNC(c1ccccc1)C(O)c1ccccc1 (stereo not drawn),survivor count,[7],2 of 3
same,survivor count,[8],0 of 6
N#CC(C#N)=C1SCS1,survivor count,"dose: 100.0 mg/kg/injection, schedule: Q04DX002 (ip), vehicle: saline with Tween-80",1 of 3
same,survivor count,"dose: 200.0 mg/kg/injection, schedule: Q04DX002 (ip), vehicle: saline with Tween-80",0 of 3
same,survivor count,"dose: 400.0 mg/kg/injection, schedule: Q04DX002 (ip), vehicle: saline with Tween-80",0 of 3
CC(COC(=O)c1ccc(N)cc1)NC1CCCCC1 (stereo not drawn),survivor count,"dose: 300.0 mg/kg/injection, schedule: Q01DX001 (ip), vehicle: other",0 of 6
Cc1cnc(C)c(OCCN2CC2)n1,survivor count,[9],0 of 6
same,survivor count,[10],0 of 6
COc1ccc(CCC(C(=O)O)c2ccc(OC)c(OC)c2)cc1OC (stereo not drawn),T/C,"dose: 100.0 mg/kg/injection, schedule: Q01DX009 (ip), vehicle: Klucel (hydroxypropylcellulose) (HPC)",127 % of control
same,survivor count,"dose: 100.0 mg/kg/injection, schedule: Q04DX003 (ip), vehicle: Klucel (hydroxypropylcellulose) (HPC)",6 of 6
O=C1NCC2(CCCCCC2)O1,survivor count,[10],3 of 6
O=C(CCN1CCC(c2ccccc2)CC1)c1ccc(F)cc1,survivor count,"dose: 400.0 mg/kg/injection, schedule: Q01DX001 (ip), vehicle: carboxymethylcellulose (CMC)",0 of 4
NNC(=O)CNc1cccc(Br)c1,survivor count,[11],1 of 3
same,T/C,[7],130 % of control
same,survivor count,[7],0 of 3
same,T/C,[12],131 % of control
same,survivor count,[12],0 of 3
O=S(N=C(C(F)(F)F)C(F)(F)F)C(F)(F)F (stereo not drawn),survivor count,"dose: 200.0 mg/kg/injection, schedule: Q01DX001 (ip), vehicle: Klucel (hydroxypropylcellulose) (HPC)",3 of 6
OC(c1ccccc1)C(c1ccccc1)C1CO1 (stereo not drawn),survivor count,"dose: 50.0 mg/kg/injection, schedule: Q01DX009 (ip), vehicle: DMSO",6 of 6
same,survivor count,"dose: 100.0 mg/kg/injection, schedule: Q01DX009 (ip), vehicle: DMSO",3 of 6
same,survivor count,"dose: 200.0 mg/kg/injection, schedule: Q01DX009 (ip), vehicle: DMSO",1 of 6
same,survivor count,"dose: 400.0 mg/kg/injection, schedule: Q01DX009 (ip), vehicle: DMSO",0 of 6
Fc1ccccc1CSc1ncnc2nc[nH]c12,T/C,"dose: 75.0 mg/kg/injection, schedule: Q01DX009 (ip), vehicle: saline",141 % of control
same,survivor count,"dose: 300.0 mg/kg/injection, schedule: Q01DX009 (ip), vehicle: saline",1 of 6
same,survivor count,[10],1 of 6
same,survivor count,"dose: 600.0 mg/kg/injection, schedule: Q01DX001 (ip), vehicle: saline",0 of 6
CN(C)CCC(=O)c1ccc2cc(Br)c3ccccc3c2c1,survivor count,"dose: 20.0 mg/kg/injection, schedule: Q01DX Z (ip), vehicle: methylcellulose (MC)",5 of 6
Cc1cccc(C)c1NC(=O)Nc1ncccn1,survivor count,[11],3 of 3
CCN(CC)Cc1cc(Nc2nc(/C=C/c3ccc(Cl)cc3)nc(Cl)c2-c2ccc(Cl)cc2)ccc1O,survivor count,[13],6 of 6
same,survivor count,[9],6 of 6
same,survivor count,[10],6 of 6
CC(=[N-])CC(C)=O.CC(=[N-])CC(C)=O.[Co+2],survivor count,"dose: 50.0 mg/kg/injection, schedule: Q01DX001 (ip), vehicle: saline",1 of 6
same,survivor count,[13],0 of 6
same,survivor count,[9],0 of 6
same,survivor count,[10],0 of 6
O=C(Nc1ccc(C2=NCCCN2)cc1)Nc1ccc(NC(=O)Nc2ccc(C3=NCCCN3)cc2)c(Cl)c1,T/C,"dose: 8.0 mg/kg/injection, schedule: Q01DX Z (ip), vehicle: carboxymethylcellulose (CMC)",126 % of control
same,T/C,"dose: 16.0 mg/kg/injection, schedule: Q01DX Z (ip), vehicle: carboxymethylcellulose (CMC)",137 % of control
same,T/C,"dose: 31.0 mg/kg/injection, schedule: Q01DX Z (ip), vehicle: carboxymethylcellulose (CMC)",131 % of control
same,T/C,"dose: 62.0 mg/kg/injection, schedule: Q01DX Z (ip), vehicle: carboxymethylcellulose (CMC)",127 % of control
same,survivor count,"dose: 125.0 mg/kg/injection, schedule: Q01DX Z (ip), vehicle: carboxymethylcellulose (CMC)",6 of 6
same,survivor count,"dose: 250.0 mg/kg/injection, schedule: Q01DX Z (ip), vehicle: carboxymethylcellulose (CMC)",5 of 6
same,survivor count,"dose: 500.0 mg/kg/injection, schedule: Q01DX Z (ip), vehicle: carboxymethylcellulose (CMC)",3 of 6
O=C(O)COc1cc(F)c(Cl)cc1Cl,survivor count,[8],3 of 6
NC(CCl)=NCCCN1CCOCC1,survivor count,[6],0 of 3
COC(=O)C1CC23C=CCN4CC(C2C)C2(c5ccccc5NC12)C43 (stereo not drawn),survivor count,[9],0 of 6
C=CCCCCCCCCC(=O)N/N=C/c1ccccc1,survivor count,[12],1 of 3
C[N+](C)(C)CCBr,survivor count,[4],5 of 6
same,survivor count,[5],2 of 6
same,survivor count,"dose: 200.0 mg/kg/injection, schedule: Q04DX003 (ip), vehicle: saline",0 of 6
